# In PubChem BioAssay AID2685 (National Center for Advancing Translational Sciences (NCATS), 2010):
# The list shows a part of the results. Further columns of the screen follow, without active or inactive calls. The list favours compounds with an active or inconclusive main result. Potencies come from curve fits of mixed quality, noted in brackets.
# Experiment: qHTS Assay for Lipid Storage Modulators in Drosophila S3 Cells;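 on cell number change: cells counted by Cell Tracker Red CMTPX staining in the red channel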
# Conditions: BODIPY lipid droplet fluorescence, 18-24 h; for cell number change: measured here: cell count max response, cells fed with added oleic acid
# Method in brief: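 Drosophila S3 cells got compounds at several concentrations plus oleic acid (400 uM solution). Laser-scanning cytometry with 488 nm excitation read lipid droplets at 500-530 nm and cells at 575-640 nm. Percent activity was relative to 20 uM Triacsin C.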
# [1] = measured here: cell number channel AC50, cells fed with added oleic acid
# [2] = measured here: lipid fluorescence (Fed channel) AC50, cells fed with added oleic acid
structure (smiles),measurement,setting,value
CCOc1ccc(C(=O)NCc2ccco2)cc1,cell number change,,57%
same,AC50,[1],"16.4 µM [rising, partial curve]"
same,AC50,[2],"20.6 µM [rising, partial curve]"
Cc1ccc(S(=O)(=O)NCC(=O)N(CC(=O)NCc2ccco2)Cc2ccc(F)cc2)cc1,cell number change,,-32.9%
same,AC50,[1],"1.64 µM [falling, full curve, poor fit]"
CCOC(=O)c1ccccc1NC(=O)CCNC(=O)Cn1cnc2ccccc2c1=O,cell number change,,-11.8%
same,AC50,[1],"0.146 µM [falling, full curve, poor fit]"
same,AC50,[2],"7.31 µM [rising, partial curve]"
COc1ccc(NS(=O)(=O)c2cccc(C(=O)N3CCCCCC3)c2)cc1,cell number change,,-50%
same,AC50,[1],"6.51 µM [rising, partial curve, poor fit]"
COc1ccc(/C=C/C(=O)NC(=S)N2CCCC(C(N)=O)C2)cc1 (stereo unspecified),cell number change,,9.91%
O=C(Nc1ccc(Br)cc1)c1ccc(N2C(=O)C3CC=C(Cl)CC3C2=O)cc1 (stereo unspecified),cell number change,,19.5%
same,AC50,[1],"0.00517 µM [falling, full curve, poor fit]"
CCCOc1ccc(CC(=O)NNC(=S)Nc2ccccc2)cc1Br,cell number change,,-38.1%
same,AC50,[1],"9.2 µM [falling, partial curve, poor fit]"
Cc1csc(CNC(=O)c2ccc(OC3CCN(CCc4ccccc4)CC3)cc2)n1,cell number change,,-2.06%
COC(=O)c1cc(N=Nc2c(C)[nH]c3ccccc23)cc(C(=O)OC)c1,cell number change,,3.09%
same,AC50,[2],"1.84 µM [rising, partial curve, poor fit]"
COc1ccccc1-c1cc(C(=O)Nc2cc(C)on2)no1,cell number change,,18.3%
same,AC50,[2],"29.1 µM [rising, single point]"
COc1cc2c(C(=O)NCc3ccccn3)cn(C)c(=O)c2cc1OC,cell number change,,13.3%
same,AC50,[2],"0.92 µM [rising, full curve, poor fit]"
CCc1ccccc1NC(=S)N(CCN1CCOCC1)Cc1ccccc1F,AC50,[1],"0.146 µM [rising, single point]"
O=C(CN1C(=O)C2CCCCN2C(=O)c2ccccc21)N1CCCc2ccccc21 (stereo unspecified),cell number change,,87.9%
same,AC50,[1],"11.6 µM [rising, partial curve]"
same,AC50,[2],"0.164 µM [rising, full curve, poor fit]"
CC(=O)Nc1ccc(NS(=O)(=O)c2cccc3nonc23)cc1,cell number change,,8.87%
COc1ccc(Cl)cc1NC(=O)C(=O)NC1CCCCCC1,cell number change,,-40.4%
same,AC50,[1],"3.66 µM [falling, full curve, poor fit]"
same,AC50,[2],"23.1 µM [falling, partial curve]"
Cn1nccc1C(=O)NC1CCCc2c1cnn2-c1ccccc1F (stereo unspecified),cell number change,,-37.4%
same,AC50,[1],"1.16 µM [falling, full curve, poor fit]"
Cc1ccc(NC(=O)N2CCN(C/C=C/c3ccccc3)CC2)cc1,cell number change,,32.4%
Cc1cc(C)cc(NC(=O)NNC(=O)c2cc3occc3[nH]2)c1,cell number change,,28.6%
O=C(Nc1cccc(S(=O)(=O)N2CCCCC2)c1)C1CC(=O)N(Cc2ccccc2)C1 (stereo unspecified),cell number change,,-9.02%
same,AC50,[2],"23.1 µM [falling, partial curve]"
Cc1cc(N/N=C2\CC(C)CC(C)(C)C2)nc2ccccc12 (stereo unspecified),cell number change,,7.69%
same,AC50,[2],"6.51 µM [rising, single point]"
C=CCNc1nc(-c2ccc(Cl)cc2)cs1,cell number change,,-38.8%
same,AC50,[1],"29.1 µM [falling, single point]"
CC(=O)c1ccc(NC(=O)c2cc(=O)[nH]c3ccccc23)cc1,cell number change,,39.3%
same,AC50,[1],"3.26 µM [rising, partial curve]"
O=C1C=CC(=O)N1Nc1ccc(Br)cc1,cell number change,,0.494%
same,AC50,[1],"0.651 µM [falling, single point]"
same,AC50,[2],"1.84 µM [falling, partial curve]"
CCN(CC)C(=O)CN(c1cc2c(cc1OC)oc1ccccc12)S(=O)(=O)c1ccc(C)cc1,cell number change,,-3.31%
same,AC50,[2],"2.91 µM [rising, full curve, poor fit]"
CC(=Nc1ccc(C)c(C)c1)C1=C(O)CCC1=O,cell number change,,6.17%
same,AC50,[2],"2.91 µM [falling, partial curve, poor fit]"
C=C1C(=O)C=C2CN(C(=O)c3ccccc3)[C@@](Cc3ccc(F)cc3)(C(=O)OC)[C@@H]12,cell number change,,-89.7%
same,AC50,[1],"20.6 µM [falling, partial curve]"
same,AC50,[2],"2.59 µM [falling, full curve]"
CCCn1c(=O)c2ccccc2n2c(SCC(=O)NCc3cccs3)nnc12,cell number change,,63.2%
same,AC50,[1],"14.6 µM [rising, partial curve]"
same,AC50,[2],"6.51 µM [rising, partial curve, poor fit]"
CCN1CCCc2cc(CN(CCN3CCOCC3)C(=S)Nc3ccc(OC)c(Cl)c3)ccc21,cell number change,,1.68%
same,AC50,[1],"0.0103 µM [rising, full curve, poor fit]"
same,AC50,[2],"0.517 µM [rising, partial curve, poor fit]"
Cc1ccc(-c2nnn(CC(=O)N3CCN(c4nc5ccccc5s4)CC3)n2)cc1,cell number change,,2.75%
same,AC50,[2],"4.61 µM [rising, single point]"
CN(CC(=O)Nc1ccc(Cl)cc1)S(=O)(=O)c1ccc2c(c1)n(C)c(=O)c(=O)n2C,cell number change,,11.8%
CCOc1nc(NCc2ccco2)nc(Nc2ccc(OC)cc2)n1,cell number change,,12.7%
same,AC50,[2],"5.8 µM [rising, full curve]"
CCOc1ccc(/C=N/NC(=O)NC23CC4CC(CC(C4)C2)C3)cc1O,cell number change,,-43.1%
same,AC50,[1],"0.231 µM [falling, partial curve, poor fit]"
same,AC50,[2],"0.731 µM [falling, full curve]"
CCc1ccc(C(=O)COC(=O)CNC(=O)CNS(=O)(=O)c2ccccc2)cc1,cell number change,,-2.64%
same,AC50,[2],"4.11 µM [rising, single point]"
COc1ccc(N(Cc2ccccc2)C(=O)CSc2nnc(Cn3nnc4ccccc43)o2)cc1,cell number change,,13.9%
same,AC50,[1],"1.84 µM [rising, single point]"
same,AC50,[2],"5.17 µM [rising, partial curve]"
Cc1cc(NCCOCCO)n2c(nc3ccccc32)c1C#N,cell number change,,19.4%
CC(C)c1ccc(S(=O)(=O)N2CCC(C(=O)NCc3ccco3)CC2)cc1,cell number change,,88.4%
CC(C)C(=O)N1CCN(c2ccc(NC(=O)c3ccco3)cc2Cl)CC1,cell number change,,-8.57%
NS(=O)(=O)c1ccc(CCNC(=O)COC(=O)CC(c2ccccc2)c2ccccc2)cc1,cell number change,,6.86%
same,AC50,[2],"1.16 µM [falling, partial curve, poor fit]"
Cc1ccc(Cl)cc1N(CC(=O)NC(C)c1ccccc1)S(C)(=O)=O (stereo unspecified),cell number change,,31.6%
same,AC50,[1],"0.0058 µM [rising, full curve, poor fit]"
same,AC50,[2],"23.1 µM [rising, single point]"
COC(=O)c1ccccc1NC(=O)c1cccc(COc2ccccc2Cl)c1,cell number change,,49.1%
same,AC50,[1],"4.61 µM [rising, full curve, poor fit]"
same,AC50,[2],"6.51 µM [rising, full curve]"
COc1ccc(NC(=O)C2CC(c3cc(OC)c(OC)c(OC)c3)=NO2)cc1OC (stereo unspecified),AC50,[1],"2.91 µM [rising, partial curve]"
same,AC50,[2],"4.61 µM [rising, partial curve]"
CCn1c(COc2ccccc2C)nnc1SCc1nc2ccccc2c(=O)[nH]1,AC50,[1],"0.461 µM [rising, full curve, poor fit]"
same,AC50,[2],"0.411 µM [rising, full curve, poor fit]"
CCOc1ccccc1C(=O)NC(C(=O)Nc1cccnc1)C(C)C (stereo unspecified),AC50,[1],"0.092 µM [rising, partial curve, poor fit]"
CC(C)c1ccc(C(=O)NC(=S)NCc2cccnc2)cc1,cell number change,,-7.78%
O=C1NC(c2ccc3c(c2)OCO3)Oc2ccccc21 (stereo unspecified),cell number change,,36.6%
same,AC50,[1],"0.00461 µM [rising, full curve, poor fit]"
same,AC50,[2],"0.0731 µM [falling, full curve, poor fit]"
CC(C)Oc1ccccc1NC(=O)CSc1nccn1C,cell number change,,-15.3%
Cc1ccc(-c2ccccc2NC(=O)CS(=O)CC(=O)Nc2ccc(C)c(Cl)c2)o1 (stereo unspecified),AC50,[2],"6.51 µM [falling, single point]"
CCCn1c(SCC(=O)Nc2cc(Cl)ccc2OC)n[nH]c1=O,AC50,[1],"0.291 µM [rising, partial curve, poor fit]"
O=C(Nc1ccnn1C1CCN(C(=O)c2cccc(C(F)(F)F)c2)CC1)C1CC1,cell number change,,0.289%
O=C(CN1CCOCC1)Nc1ncc(Cc2ccccc2Cl)s1,AC50,[2],"0.13 µM [falling, full curve, poor fit]"
COc1ccc(C(=O)N/C(=C\c2ccccc2)C(=O)Nc2cccc(C(=O)O)c2)cc1,cell number change,,16.7%
same,AC50,[2],"0.103 µM [rising, full curve, poor fit]"
COc1ccccc1NC(=O)/C=C/c1ccc(OC)c(S(=O)(=O)N2CCOCC2)c1,cell number change,,22.1%
same,AC50,[2],"0.164 µM [rising, full curve, poor fit]"
CN1CCCC(C(=O)C(C#N)c2ccccc2)C1 (stereo unspecified),AC50,[2],"25.9 µM [falling, partial curve, poor fit]"
Cc1cc(C(=O)Nc2cccc3ncccc23)no1,cell number change,,13.7%
same,AC50,[2],"0.651 µM [falling, single point]"
Cc1ccc(-n2cc(CNCCc3ncc(C)[nH]3)c(-c3ccc(F)cc3)n2)cc1,cell number change,,-53.6%
same,AC50,[1],"18.4 µM [falling, single point]"
same,AC50,[2],"29.1 µM [falling, single point]"
COc1cc(OC)c(NS(=O)(=O)c2coc(C(N)=O)c2)cc1Cl,cell number change,,-8.72%
CCn1c(SCC(=O)N2CC(=O)Nc3ccccc32)nnc1-c1ccoc1C,cell number change,,4.96%
same,AC50,[2],"20.6 µM [rising, single point]"
CCN(CC)c1ccc(-c2c(C#N)c(N)nc(OC)c2C#N)cc1,cell number change,,-21.7%
same,AC50,[2],"0.461 µM [rising, full curve, poor fit]"
